Earlier results, collected in patent US20130095151A1, “BROAD SPECTRUM SUNSCREEN COMPOSITION COMPRISING 2 HYDROXY SULFOBETAINE OF CINNAMIDOALKYL AMINE” (GALAXY SURFACTANTS LTD., priority 2010, published 2013).
At least one structure is not confirmed: it was looked up by name or label, or the drawing left a doubt.

Conditions: cosmetic or pharmacological preparation; cited from earlier work

## O=S(=O)(O)c1ccc2[nH]c(-c3ccccc3)nc2c1 [Phenylbenzimidazole Sulfonic Acid]
  pH at which crystal formation starts: 7.0
